Measured values as given in the supplement of paper PMC6411743.
± gives the standard deviation of the averaged measurements. Only a part is listed here, and it is no random draw. Most entries show no effect beyond the scatter of the controls.

Amino acid sequences for entries named in this document (tags omitted). A change or cut given only in a name is not applied to a line headed by its entry.
UniProt Q9P2B4: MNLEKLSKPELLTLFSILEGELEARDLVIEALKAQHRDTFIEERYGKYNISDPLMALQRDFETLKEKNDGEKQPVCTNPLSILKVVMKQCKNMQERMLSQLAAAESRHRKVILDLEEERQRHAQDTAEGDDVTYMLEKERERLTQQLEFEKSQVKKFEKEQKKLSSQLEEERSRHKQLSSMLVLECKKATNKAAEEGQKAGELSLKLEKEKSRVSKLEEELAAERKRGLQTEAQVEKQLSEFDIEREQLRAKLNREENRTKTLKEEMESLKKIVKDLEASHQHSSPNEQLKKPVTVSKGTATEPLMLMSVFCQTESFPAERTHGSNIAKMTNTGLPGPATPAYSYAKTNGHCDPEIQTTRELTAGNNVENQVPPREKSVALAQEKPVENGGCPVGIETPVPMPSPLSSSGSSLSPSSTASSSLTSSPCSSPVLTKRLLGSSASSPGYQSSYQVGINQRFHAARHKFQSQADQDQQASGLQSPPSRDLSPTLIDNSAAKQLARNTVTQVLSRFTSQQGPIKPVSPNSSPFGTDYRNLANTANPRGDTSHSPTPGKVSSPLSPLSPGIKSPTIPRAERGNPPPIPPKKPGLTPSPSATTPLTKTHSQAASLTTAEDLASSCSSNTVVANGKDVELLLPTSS
UniProt Q9NWR8: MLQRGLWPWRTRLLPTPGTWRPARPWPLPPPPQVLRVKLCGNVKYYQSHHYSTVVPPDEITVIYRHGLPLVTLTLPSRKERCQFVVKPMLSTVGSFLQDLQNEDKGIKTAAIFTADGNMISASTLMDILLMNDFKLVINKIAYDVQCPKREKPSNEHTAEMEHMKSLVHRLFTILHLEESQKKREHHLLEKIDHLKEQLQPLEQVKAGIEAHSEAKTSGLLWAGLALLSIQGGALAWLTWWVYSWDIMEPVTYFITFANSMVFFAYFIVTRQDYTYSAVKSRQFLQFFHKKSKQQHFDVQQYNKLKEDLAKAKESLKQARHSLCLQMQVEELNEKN
UniProt Q9NW81: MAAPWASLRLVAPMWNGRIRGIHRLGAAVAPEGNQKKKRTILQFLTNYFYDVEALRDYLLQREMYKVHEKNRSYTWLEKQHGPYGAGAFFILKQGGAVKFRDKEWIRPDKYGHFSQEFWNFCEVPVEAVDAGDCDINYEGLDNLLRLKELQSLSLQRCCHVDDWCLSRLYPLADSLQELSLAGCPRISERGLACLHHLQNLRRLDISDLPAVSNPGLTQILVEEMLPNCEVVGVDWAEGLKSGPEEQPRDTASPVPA
UniProt Q9NW64: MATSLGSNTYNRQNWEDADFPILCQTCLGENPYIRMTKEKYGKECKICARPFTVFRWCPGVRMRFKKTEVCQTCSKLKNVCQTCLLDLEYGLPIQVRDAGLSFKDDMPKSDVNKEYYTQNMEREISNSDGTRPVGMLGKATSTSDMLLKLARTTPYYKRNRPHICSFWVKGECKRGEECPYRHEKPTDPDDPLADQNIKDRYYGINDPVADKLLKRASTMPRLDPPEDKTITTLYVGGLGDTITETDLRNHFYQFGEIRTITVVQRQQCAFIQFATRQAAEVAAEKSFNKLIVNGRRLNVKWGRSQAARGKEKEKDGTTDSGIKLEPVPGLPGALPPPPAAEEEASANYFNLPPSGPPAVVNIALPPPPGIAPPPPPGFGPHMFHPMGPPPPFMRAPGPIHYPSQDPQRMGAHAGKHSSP
UniProt Q9P1F3: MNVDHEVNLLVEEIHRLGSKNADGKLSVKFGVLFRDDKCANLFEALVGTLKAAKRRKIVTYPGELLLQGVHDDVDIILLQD
UniProt Q9P031: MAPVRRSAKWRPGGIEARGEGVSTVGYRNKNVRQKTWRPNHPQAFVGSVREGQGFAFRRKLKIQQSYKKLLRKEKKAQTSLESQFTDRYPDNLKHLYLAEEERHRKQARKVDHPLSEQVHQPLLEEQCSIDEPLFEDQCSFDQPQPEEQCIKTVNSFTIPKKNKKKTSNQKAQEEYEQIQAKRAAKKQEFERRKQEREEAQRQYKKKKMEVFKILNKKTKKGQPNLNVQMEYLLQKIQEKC
UniProt Q9NYH9: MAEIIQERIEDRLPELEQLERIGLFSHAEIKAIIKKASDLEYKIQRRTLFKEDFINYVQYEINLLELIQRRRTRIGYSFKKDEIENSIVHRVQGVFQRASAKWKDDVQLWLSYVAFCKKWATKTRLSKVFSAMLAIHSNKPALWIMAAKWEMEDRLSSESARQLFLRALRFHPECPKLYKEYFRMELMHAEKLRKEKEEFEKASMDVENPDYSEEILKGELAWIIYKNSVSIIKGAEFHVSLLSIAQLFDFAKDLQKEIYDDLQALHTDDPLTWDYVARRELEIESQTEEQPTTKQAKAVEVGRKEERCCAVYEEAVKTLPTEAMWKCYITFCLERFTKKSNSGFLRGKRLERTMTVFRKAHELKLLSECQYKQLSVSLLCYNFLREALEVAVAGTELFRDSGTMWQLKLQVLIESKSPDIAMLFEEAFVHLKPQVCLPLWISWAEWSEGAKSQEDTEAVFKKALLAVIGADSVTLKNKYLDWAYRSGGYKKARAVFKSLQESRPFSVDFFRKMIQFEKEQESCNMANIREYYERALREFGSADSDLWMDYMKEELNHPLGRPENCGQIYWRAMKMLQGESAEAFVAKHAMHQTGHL
UniProt Q9NQP4, whole entry: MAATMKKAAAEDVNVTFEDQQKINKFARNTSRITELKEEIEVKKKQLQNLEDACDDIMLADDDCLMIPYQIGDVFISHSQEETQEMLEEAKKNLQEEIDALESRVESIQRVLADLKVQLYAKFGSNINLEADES
UniProt Q9UBN7: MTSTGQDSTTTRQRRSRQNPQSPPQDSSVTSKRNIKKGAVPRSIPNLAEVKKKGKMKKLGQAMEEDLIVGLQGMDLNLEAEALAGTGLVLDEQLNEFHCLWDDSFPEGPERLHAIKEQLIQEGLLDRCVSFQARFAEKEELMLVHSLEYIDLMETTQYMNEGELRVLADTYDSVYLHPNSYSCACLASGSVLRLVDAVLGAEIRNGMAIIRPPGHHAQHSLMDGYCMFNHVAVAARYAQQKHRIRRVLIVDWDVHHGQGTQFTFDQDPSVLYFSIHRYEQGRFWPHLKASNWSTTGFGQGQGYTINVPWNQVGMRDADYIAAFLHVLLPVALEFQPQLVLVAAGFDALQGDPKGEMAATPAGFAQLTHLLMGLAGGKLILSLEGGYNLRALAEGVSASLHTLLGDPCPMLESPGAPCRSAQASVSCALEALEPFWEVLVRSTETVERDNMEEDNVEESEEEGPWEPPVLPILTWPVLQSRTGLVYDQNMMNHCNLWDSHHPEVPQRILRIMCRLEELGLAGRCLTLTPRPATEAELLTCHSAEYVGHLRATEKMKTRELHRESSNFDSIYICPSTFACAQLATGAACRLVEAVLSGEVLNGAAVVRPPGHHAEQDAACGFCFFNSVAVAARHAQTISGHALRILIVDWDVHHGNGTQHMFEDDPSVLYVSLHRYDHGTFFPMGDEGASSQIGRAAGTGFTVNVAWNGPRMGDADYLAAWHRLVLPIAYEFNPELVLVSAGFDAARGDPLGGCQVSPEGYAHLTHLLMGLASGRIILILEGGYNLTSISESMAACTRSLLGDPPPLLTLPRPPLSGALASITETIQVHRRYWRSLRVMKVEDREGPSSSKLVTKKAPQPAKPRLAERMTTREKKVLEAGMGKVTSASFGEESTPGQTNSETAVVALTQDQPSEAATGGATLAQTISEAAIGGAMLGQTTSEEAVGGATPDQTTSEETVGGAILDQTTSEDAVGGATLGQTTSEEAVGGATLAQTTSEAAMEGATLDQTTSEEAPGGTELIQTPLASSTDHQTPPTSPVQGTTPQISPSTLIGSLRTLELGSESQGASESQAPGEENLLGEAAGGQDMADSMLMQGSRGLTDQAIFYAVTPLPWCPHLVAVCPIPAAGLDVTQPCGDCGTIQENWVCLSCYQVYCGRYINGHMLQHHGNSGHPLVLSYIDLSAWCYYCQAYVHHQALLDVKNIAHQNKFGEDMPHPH
UniProt Q9NUU7: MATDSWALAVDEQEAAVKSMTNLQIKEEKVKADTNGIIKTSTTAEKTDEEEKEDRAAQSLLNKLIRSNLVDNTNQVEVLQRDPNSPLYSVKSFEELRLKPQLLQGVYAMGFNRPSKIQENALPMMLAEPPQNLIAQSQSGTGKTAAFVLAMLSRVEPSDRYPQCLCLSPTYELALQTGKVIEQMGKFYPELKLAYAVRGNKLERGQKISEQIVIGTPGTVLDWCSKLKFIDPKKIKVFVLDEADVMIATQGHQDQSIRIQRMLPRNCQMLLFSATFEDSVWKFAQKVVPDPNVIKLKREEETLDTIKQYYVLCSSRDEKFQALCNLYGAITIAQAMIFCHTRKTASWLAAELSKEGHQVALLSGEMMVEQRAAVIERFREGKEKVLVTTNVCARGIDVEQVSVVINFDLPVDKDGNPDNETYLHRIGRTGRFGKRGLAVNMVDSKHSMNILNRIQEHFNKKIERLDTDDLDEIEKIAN
UniProt Q9NZ43: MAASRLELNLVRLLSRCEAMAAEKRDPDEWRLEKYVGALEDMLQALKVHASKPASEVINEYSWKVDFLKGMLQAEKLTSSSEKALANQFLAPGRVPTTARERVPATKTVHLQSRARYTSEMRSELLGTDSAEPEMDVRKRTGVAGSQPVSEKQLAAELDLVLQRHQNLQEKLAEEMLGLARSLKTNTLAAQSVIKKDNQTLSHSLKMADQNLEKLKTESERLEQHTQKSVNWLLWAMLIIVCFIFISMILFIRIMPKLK
UniProt Q9NWZ5: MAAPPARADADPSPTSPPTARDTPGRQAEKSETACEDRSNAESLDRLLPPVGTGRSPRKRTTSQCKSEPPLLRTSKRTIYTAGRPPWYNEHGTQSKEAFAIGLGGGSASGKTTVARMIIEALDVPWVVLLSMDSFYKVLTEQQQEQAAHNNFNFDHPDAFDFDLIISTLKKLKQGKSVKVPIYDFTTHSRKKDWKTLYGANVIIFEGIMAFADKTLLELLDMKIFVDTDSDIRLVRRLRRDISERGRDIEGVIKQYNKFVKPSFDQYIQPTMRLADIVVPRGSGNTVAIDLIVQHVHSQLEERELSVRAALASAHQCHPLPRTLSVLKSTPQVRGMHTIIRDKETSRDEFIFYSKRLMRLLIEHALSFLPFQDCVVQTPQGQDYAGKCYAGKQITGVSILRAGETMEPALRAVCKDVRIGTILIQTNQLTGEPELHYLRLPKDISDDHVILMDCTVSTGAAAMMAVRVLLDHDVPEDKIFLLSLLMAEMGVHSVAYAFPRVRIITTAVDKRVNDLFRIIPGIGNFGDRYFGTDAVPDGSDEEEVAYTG
UniProt Q9NSI8: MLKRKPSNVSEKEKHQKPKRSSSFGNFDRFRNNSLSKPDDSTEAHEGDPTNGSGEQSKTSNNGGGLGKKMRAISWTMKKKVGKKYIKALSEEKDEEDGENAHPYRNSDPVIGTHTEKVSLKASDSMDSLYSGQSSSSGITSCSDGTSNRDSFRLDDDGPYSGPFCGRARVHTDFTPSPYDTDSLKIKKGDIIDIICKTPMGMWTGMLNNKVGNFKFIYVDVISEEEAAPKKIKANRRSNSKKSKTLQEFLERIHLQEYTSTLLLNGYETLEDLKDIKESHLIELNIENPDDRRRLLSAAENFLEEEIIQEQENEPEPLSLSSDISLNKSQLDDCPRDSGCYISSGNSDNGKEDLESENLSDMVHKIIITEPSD
UniProt Q9NW82: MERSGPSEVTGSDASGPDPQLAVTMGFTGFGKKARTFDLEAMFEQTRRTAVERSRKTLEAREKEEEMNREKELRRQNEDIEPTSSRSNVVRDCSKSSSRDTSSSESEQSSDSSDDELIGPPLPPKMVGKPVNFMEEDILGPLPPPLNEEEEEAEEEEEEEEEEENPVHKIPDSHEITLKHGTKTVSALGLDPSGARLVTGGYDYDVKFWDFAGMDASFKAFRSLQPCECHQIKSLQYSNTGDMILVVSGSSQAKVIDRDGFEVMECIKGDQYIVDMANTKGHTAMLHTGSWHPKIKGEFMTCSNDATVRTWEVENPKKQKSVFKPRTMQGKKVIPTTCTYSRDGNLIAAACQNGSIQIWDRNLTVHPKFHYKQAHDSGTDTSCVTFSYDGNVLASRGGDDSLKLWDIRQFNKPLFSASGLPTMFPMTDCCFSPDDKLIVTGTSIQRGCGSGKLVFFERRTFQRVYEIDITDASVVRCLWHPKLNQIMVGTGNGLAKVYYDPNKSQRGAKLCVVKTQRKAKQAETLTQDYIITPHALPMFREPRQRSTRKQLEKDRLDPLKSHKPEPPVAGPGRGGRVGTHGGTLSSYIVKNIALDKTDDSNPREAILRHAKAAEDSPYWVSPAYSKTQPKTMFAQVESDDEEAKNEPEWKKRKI
UniProt Q9NR28: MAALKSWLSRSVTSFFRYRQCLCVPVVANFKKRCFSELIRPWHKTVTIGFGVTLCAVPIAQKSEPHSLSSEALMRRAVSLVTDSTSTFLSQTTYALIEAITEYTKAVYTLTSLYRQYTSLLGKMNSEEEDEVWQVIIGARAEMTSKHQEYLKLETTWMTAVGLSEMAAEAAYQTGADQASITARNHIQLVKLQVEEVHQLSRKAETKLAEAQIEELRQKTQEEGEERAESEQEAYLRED
UniProt Q9UBF6, whole entry: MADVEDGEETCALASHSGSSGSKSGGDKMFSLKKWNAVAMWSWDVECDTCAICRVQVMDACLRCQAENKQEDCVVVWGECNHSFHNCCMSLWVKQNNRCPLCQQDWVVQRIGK

These targets were tested with Nc1ncnc2c1ncn2[C@@H]1O[C@H](COP(=O)(O)OP(=O)(O)NP(=O)(O)O)[C@@H](O)[C@H]1O [adenylyl imidodiphosphate] (assay: NP40-soluble protein abundance relative to vehicle (solubility fold change) (ratio); higher = more soluble protein in presence of AMP-PNP). Conditions: concentration: 0.1mM.
In short: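 Data come from three independent experiments in which Dounce-homogenised Jurkat crude lysate was treated at eight concentrations from 0.1 to 10 mM. Treatment ran 10 min at room temperature and then 3 min at 37 °C, after which 0.8% NP40 and benzonase were added for 60 min at 4 °C before ultracentrifugation. The supernatant underwent TMT labelling and LC-MS/MS, and vsn-normalised intensities were expressed as fold change against the detergent-processed vehicle in each replicate.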
In the case of UniProt Q9NQG7 and related entries, the NP40-soluble protein abundance is reported as 1.02 ± 0.037.
UniProt Q9NRL3 and related entries was tested, and the NP40-soluble protein abundance was 0.987 ± 0.044.
CTTNBP2NL (UniProt Q9P2B4) showed an NP40-soluble protein abundance of 1 ± 0.032.
UniProt Q9NWR8 gave an NP40-soluble protein abundance of 1.009 ± 0.0037.
UniProt Q9NYF8 and related entries showed an NP40-soluble protein abundance of 0.9989 ± 0.0014.
Target UniProt Q9UBS0 has an NP40-soluble protein abundance of 1.06 ± 0.041.
Target RNF181 (UniProt Q9P0P0) has an NP40-soluble protein abundance of 0.991 ± 0.022.
GTSE1 (UniProt Q9NYZ3) showed an NP40-soluble protein abundance of 0.997 ± 0.036.
TMOD3 (UniProt Q9NYL9) gave an NP40-soluble protein abundance of 1.02 ± 0.029.
UniProt Q9NW81 and related entries showed an NP40-soluble protein abundance of 1.05 ± 0.047.
UniProt Q9NW64 gave an NP40-soluble protein abundance of 1.07 ± 0.087.
In the case of UniProt Q9P2A4 and related entries, the NP40-soluble protein abundance is reported as 0.998 ± 0.022.
With GRHPR (UniProt Q9UBQ7) the NP40-soluble protein abundance was 1.02 ± 0.042.
Target UniProt Q9P1F3 has an NP40-soluble protein abundance of 0.965 ± 0.031.
UTP3 (UniProt Q9NQZ2) showed an NP40-soluble protein abundance of 1.03 ± 0.018.
UniProt Q9P2X0-2|Q9P2X0 showed an NP40-soluble protein abundance of 1.02 ± 0.031.
In the case of UniProt Q9NRG7-2|Q9NRG7, the NP40-soluble protein abundance is reported as 0.946 ± 0.054.
Target NKIRAS1 (UniProt Q9NYS0) has an NP40-soluble protein abundance of 1 ± 0.02.
CCDC59 (UniProt Q9P031) gave an NP40-soluble protein abundance of 0.9609 ± 0.0019.
UTP6 (UniProt Q9NYH9) was tested, and the NP40-soluble protein abundance was 1.03 ± 0.048.
PFDN4 (UniProt Q9NQP4) showed an NP40-soluble protein abundance of 0.984 ± 0.085.
UniProt Q9NXA8 and related entries gave an NP40-soluble protein abundance of 0.974 ± 0.032.
HDAC6 (UniProt Q9UBN7) gave an NP40-soluble protein abundance of 1.01 ± 0.015.
Target UniProt Q9NUU7 and related entries has an NP40-soluble protein abundance of 1.06 ± 0.0087.
UniProt Q9UBK8 and related entries gave an NP40-soluble protein abundance of 0.97 ± 0.029.
USE1 (UniProt Q9NZ43) gave an NP40-soluble protein abundance of 0.979 ± 0.012.
For UniProt Q9NZL4 and related entries, the NP40-soluble protein abundance was 0.982 ± 0.02.
UCKL1 (UniProt Q9NWZ5) was tested, and the NP40-soluble protein abundance was 1.015 ± 0.0084.
IRAK4 (UniProt Q9NWZ3) gave an NP40-soluble protein abundance of 0.9869 ± 0.0036.
UniProt Q9NSI8 and related entries was tested, and the NP40-soluble protein abundance was 1.01 ± 0.018.
UniProt Q9NVH1 and related entries gave an NP40-soluble protein abundance of 1.014 ± 0.0026.
Work on PAK1IP1 (UniProt Q9NWT1) yielded an NP40-soluble protein abundance of 1.006 ± 0.0055.
Work on WDR70 (UniProt Q9NW82) yielded an NP40-soluble protein abundance of 1.02 ± 0.014.
With ZBTB40 (UniProt Q9NUA8) the NP40-soluble protein abundance was 1 ± 0.044.
UniProt Q9NR28 and related entries showed an NP40-soluble protein abundance of 1.04 ± 0.016.
In the case of UniProt Q9NW08 and related entries, the NP40-soluble protein abundance is reported as 0.994 ± 0.024.
Work on UniProt Q9UBF6 and related entries yielded an NP40-soluble protein abundance of 1.01 ± 0.036.

Same assay, conditions: concentration: 0.5mM
UniProt Q9NQG7 and related entries gave an NP40-soluble protein abundance of 0.9919 ± 0.0018.
UniProt Q9NRL3 and related entries was tested, and the NP40-soluble protein abundance was 0.977 ± 0.056.
CTTNBP2NL (UniProt Q9P2B4) gave an NP40-soluble protein abundance of 0.975 ± 0.058.
With UniProt Q9NWR8 the NP40-soluble protein abundance was 0.9883 ± 0.0076.
For UniProt Q9NYF8 and related entries, the NP40-soluble protein abundance was 1.051 ± 0.005.
For UniProt Q9UBS0, the NP40-soluble protein abundance was 1.07 ± 0.073.
In the case of RNF181 (UniProt Q9P0P0), the NP40-soluble protein abundance is reported as 0.988 ± 0.043.
Target GTSE1 (UniProt Q9NYZ3) has an NP40-soluble protein abundance of 1.01 ± 0.038.
Work on TMOD3 (UniProt Q9NYL9) yielded an NP40-soluble protein abundance of 1.03 ± 0.054.
With UniProt Q9NW81 and related entries the NP40-soluble protein abundance was 1 ± 0.015.
In the case of UniProt Q9NW64, the NP40-soluble protein abundance is reported as 1.07 ± 0.018.
UniProt Q9P2A4 and related entries gave an NP40-soluble protein abundance of 1.02 ± 0.054.
GRHPR (UniProt Q9UBQ7) showed an NP40-soluble protein abundance of 1 ± 0.049.
Target UniProt Q9P1F3 has an NP40-soluble protein abundance of 0.955 ± 0.059.
Target UTP3 (UniProt Q9NQZ2) has an NP40-soluble protein abundance of 1.04 ± 0.022.
UniProt Q9P2X0-2|Q9P2X0 showed an NP40-soluble protein abundance of 1 ± 0.015.
UniProt Q9NRG7-2|Q9NRG7 showed an NP40-soluble protein abundance of 0.91 ± 0.089.
Work on NKIRAS1 (UniProt Q9NYS0) yielded an NP40-soluble protein abundance of 0.994 ± 0.014.
For CCDC59 (UniProt Q9P031), the NP40-soluble protein abundance was 0.979 ± 0.025.
In the case of UTP6 (UniProt Q9NYH9), the NP40-soluble protein abundance is reported as 0.986 ± 0.018.
In the case of PFDN4 (UniProt Q9NQP4), the NP40-soluble protein abundance is reported as 1.02 ± 0.036.
UniProt Q9NXA8 and related entries showed an NP40-soluble protein abundance of 0.988 ± 0.012.
Work on HDAC6 (UniProt Q9UBN7) yielded an NP40-soluble protein abundance of 0.995 ± 0.019.
UniProt Q9NUU7 and related entries was tested, and the NP40-soluble protein abundance was 1.04 ± 0.028.
UniProt Q9UBK8 and related entries gave an NP40-soluble protein abundance of 0.974 ± 0.066.
Target USE1 (UniProt Q9NZ43) has an NP40-soluble protein abundance of 1 ± 0.052.
Work on UniProt Q9NZL4 and related entries yielded an NP40-soluble protein abundance of 0.95 ± 0.052.
UCKL1 (UniProt Q9NWZ5) was tested, and the NP40-soluble protein abundance was 0.981 ± 0.043.
IRAK4 (UniProt Q9NWZ3) was tested, and the NP40-soluble protein abundance was 0.9791 ± 0.0094.
UniProt Q9NSI8 and related entries was tested, and the NP40-soluble protein abundance was 1.01 ± 0.056.
For UniProt Q9NVH1 and related entries, the NP40-soluble protein abundance was 1.01 ± 0.027.
With PAK1IP1 (UniProt Q9NWT1) the NP40-soluble protein abundance was 1.01 ± 0.045.
For WDR70 (UniProt Q9NW82), the NP40-soluble protein abundance was 1.03 ± 0.0064.
Target ZBTB40 (UniProt Q9NUA8) has an NP40-soluble protein abundance of 0.963 ± 0.01.
UniProt Q9NR28 and related entries was tested, and the NP40-soluble protein abundance was 1.03 ± 0.079.
In the case of UniProt Q9NW08 and related entries, the NP40-soluble protein abundance is reported as 0.965 ± 0.059.
Work on UniProt Q9UBF6 and related entries yielded an NP40-soluble protein abundance of 1 ± 0.03.
